# Source: PubChem BioAssay AID540335 (Broad Institute, 2011)
# Screen size: about 1,300 compounds; about 270 (21%) were called active.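 Rule for the calls: active = dose-dependent rise or fall in viability, either side of zero, with half-maximal concentration at or below a set limit; inconclusive = flat curve at 30 to 70% viability loss, or poor fit; inactive = flat within 30% either way, or potency beyond limit.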 The list shows a part of the results. Measured potencies and affinities stand elsewhere.
# Assay: proliferation inhibition in MITF-low A375 cells – cell-based, cherry-pick samples, set 2, counter-screen for MITF modulator project, dose response (AID 540335);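 note: A375 human melanoma cells which do not depend on MITF; 0% = median of neutral control wells and 100% = double that signal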
# Conditions: CellTiter-Glo ATP luminescence, 24 h; at 35 µM (top of the series)
row,Compound,"activity change, negative = decreased viability"
1,CCn1c(=O)c(C(=O)NCc2ccccc2Cl)c(O)c2ccccc21,inactive: 9.07%
2,O=C(CCl)Nc1ccc(-c2ccccc2)cc1,inactive: -39.9%
3,O=C(Nc1ccccn1)c1ccc(Br)s1,inactive: -8.96%
4,CCN1c2ccccc2NC2N=C(OC)C(c3ccccc3)C21 (centres undefined),inactive: -35.9%
5,N/C(CS(=O)(=O)c1ccccn1)=N\OC(=O)c1ccccc1Cl,inactive: 4.11%
6,CCc1cc(C=NC2CCCCC2)c(O)s1,inactive: -1.17%
7,O=C(COc1ccc2c(c1)CCC2)N1CCc2ccccc21,inactive: 8.68%
8,Cc1ccc(SCCC(=O)N2CCC(C)CC2)cc1,inactive: 13.1%
9,O=C(CCl)N(c1ccccc1)c1c[nH]c2ccccc12,inactive: -4.62%
10,COc1cc(NC(=O)COc2cc(O)c3c(c2)OC(C)(C)CC3=O)cc(OC)c1OC,inactive: -22.9%
11,N/C(=N\OC(=O)c1ccc([N+](=O)[O-])cc1)c1ccc(Br)cc1,inactive: 9.06%
12,CCN1CCCC1CNC(=O)c1ccc2c(c1)NC(=O)/C(=C\c1ccc(C)cc1)S2 (centres undefined),inactive: -95.9%
13,C=CCNC1=C(Cl)C(=O)c2ccccc2C1=O,inactive: -14.5%
14,COc1cc(CN2CCC(C(=O)NCCC(C)C)CC2)ccc1OCc1ccccc1,inactive: 5.82%
15,CCn1c(=O)c([N+](=O)[O-])c(Cl)c2ccccc21,inactive: 5.11%
16,O=C(NCC1CCCCC1)C1(CC2CC(c3cccc(Br)c3)=NO2)CCNCC1 (centres undefined),inactive: -96.6%
17,O=C(CSCc1c(F)cccc1F)Nc1ccccc1,inactive: -2.96%
18,O=C(Nc1ccc([N+](=O)[O-])cc1)c1ccccc1,inactive: -0.714%
19,CCSC1(SCC)N=C(N)C2(C#N)C(c3ccc(F)cc3)C12C#N (centres undefined),inactive: -35.4%
20,CC(=O)c1ccc(Sc2nnnn2-c2ccccc2)c([N+](=O)[O-])c1,inactive: -8.73%
21,N#C/C(=C\c1c[nH]c2ccccc12)C(=O)NC1CC1,inactive: 8.06%
22,CC(C)CC(=O)/C=C/n1c(=S)oc2ccccc21,inactive: -7.52%
23,CCCN(CC(=O)Nc1ccccc1C)C(=O)CCl,inactive: -5.68%
24,N#Cc1ccc(-c2cccnc2)nc1SCC(=O)c1ccccc1,inactive: -3.5%
25,O=C1N=C(N2CCOCC2)S/C1=C\C=C/c1ccccc1,inactive: 7.67%

row,Compound,"activity change, negative = decreased viability"
1,O=C(Cc1ccccc1)NCC(=O)N/N=C/c1ccc([N+](=O)[O-])s1,inactive: -18.9%
2,CCOC(=O)CCc1ccc(NC(=O)/C=C/c2ccc([N+](=O)[O-])o2)cc1,inactive: -26.9%
3,COc1ccc(C(=O)/C=C/Nc2ccccn2)cc1,inactive: -33.8%
4,O=C(Nc1ccc2c(c1)OCCO2)c1cccc(Cl)c1Cl,inactive: 4.29%
5,Cc1nc(NC(=O)C2CC2)sc1C(=O)Nc1ccccc1Cl,inactive: 2.11%
6,Cc1nc(-c2ccccn2)sc1C(=O)Nc1ccc(F)cc1F,inactive: -3.45%
7,CCN(CC)CC(=O)Nc1scc2c1c(=O)oc1ccccc12,inactive: 14.3%
8,Cc1ccc(/C=N/Nc2ccc(C(=O)O)cc2)s1,inactive: -4.8%
9,N#Cc1c(NC(=O)CSc2ncn[nH]2)sc2c1CCCC2,inactive: 2.05%
10,Cc1c(NC(=O)C(C)OC(=O)c2ccc([N+](=O)[O-])s2)c(=O)n(-c2ccccc2)n1C (centres undefined),inactive: -5.1%
11,Cc1ccc(C(=O)Nc2ccccc2Cl)cc1,inactive: -3.07%
12,CC1CCN(c2ccc(NC(=O)c3cccnc3)cc2)CC1,inactive: 9.4%
13,Nc1nc2n[nH]nc2c(=O)[nH]1,inactive: -34.8%
14,O=[N+]([O-])c1ccc(/C=N/N=C/c2ccc([N+](=O)[O-])o2)o1,inactive: 10.5%
15,CC(=O)Nc1ccc(S(=O)(=O)NC2=C(N3CCN(C)CC3)C(=O)c3ccccc3C2=O)cc1,inactive: -33.5%
16,Cc1ccc(N2C(=O)c3ccc(N)cc3C2=O)cc1C,inactive: 13.4%
17,O=C1c2ccccc2C(=O)c2c1ncn2-c1ccccc1,inactive: -20.5%
18,CC(C)(C)N=Cc1cc(-c2ccccc2)sc1O,inactive: 10%
19,CCOC(=O)C(=Cc1ccc(-n2ccnc2)cc1)C(=O)OCC,inactive: -21.2%
20,CCc1nc2oc3ccccc3c(=O)c2cc1C(=O)OC,inactive: -2.08%
21,CC(NC(=O)C12CC3CC(CC(C3)C1)C2)C(=O)NN=Cc1ccc([N+](=O)[O-])o1 (centres undefined),inactive: -13.3%
22,Cn1nnnc1Sc1ncnc2scc(-c3ccc(C#N)cc3)c12,inactive: 29.3%
23,COCCNC(=O)/C(C#N)=C/c1cccc(/C=C(\C#N)C(=O)NCCOC)c1,inactive: 3.41%
24,CCN(CCO)c1ccc(N=Nc2cc(C)[nH]n2)cc1,inactive: 1.54%
25,O=C(Nc1ccccc1)O/N=C/c1ccc(F)cc1,inactive: 6.51%

# A run of entries taken from the entries so far:
row,Compound,"activity change, negative = decreased viability"
10,Cc1c(NC(=O)C(C)OC(=O)c2ccc([N+](=O)[O-])s2)c(=O)n(-c2ccccc2)n1C (centres undefined),inactive: -5.1%
11,Cc1ccc(C(=O)Nc2ccccc2Cl)cc1,inactive: -3.07%
12,CC1CCN(c2ccc(NC(=O)c3cccnc3)cc2)CC1,inactive: 9.4%
13,Nc1nc2n[nH]nc2c(=O)[nH]1,inactive: -34.8%
14,O=[N+]([O-])c1ccc(/C=N/N=C/c2ccc([N+](=O)[O-])o2)o1,inactive: 10.5%

# (more compounds)

row,Compound,"activity change, negative = decreased viability"
1,Cc1ccc(C)c(-n2c3nc(=O)[nH]c(=O)c-3cc3cc([N+](=O)[O-])ccc32)c1,inactive: -5.21%
2,COc1ccc(/C=C2\SC(=S)N(CCCC(=O)NNC(=O)c3ccccc3O)C2=O)cc1,inactive: -9.23%
3,Cc1cc(/C=C(\C#N)C(=O)O)c(C)n1CC(C)C,inactive: 11%
4,CC(=O)c1sc(N/N=C\c2ccc(N(C)C)cc2)nc1C,inactive: 4.19%
5,O=[N+]([O-])c1ccccc1OCCCOc1cccc2cccnc12,inactive: 6.23%
6,CCOc1ccc(NC(=O)Nc2cccc(C(=O)O)c2)cc1,inactive: -33.1%
7,CCN(CC(=O)Nc1ccc2c(c1)OCCO2)C(=O)c1ccc([N+](=O)[O-])s1,inactive: 11.3%
8,COc1cc(NC(=O)COc2ccccc2[N+](=O)[O-])ccc1NC(=O)c1cccs1,inactive: -36.8%
9,Cc1nc(NCCOc2ccccc2)sc1C(=O)Nc1ccccc1,inactive: -4.16%
10,O=C(CCCCl)NC(=S)Nc1ccc(N2CCOCC2)cc1,inactive: 7.52%
11,O=C(N/N=C/c1ccc([N+](=O)[O-])s1)c1ccccc1,inactive: -15.9%
12,O=C(NC(=S)NCc1ccccc1)c1ccccc1,inactive: 15.5%
13,Cc1c(N=C2C=CC(=O)c3ccccc32)c(=O)n(-c2ccccc2)n1C,inactive: -31%
14,O=C(Nc1ccc(Cl)cc1)C1C2CCCCC21 (centres undefined),inactive: 11.6%
15,C=CCNc1nc(-c2ccccn2)nnc1-c1ccccc1,inactive: -21.7%
16,NC(=O)c1ccccc1NC(=O)/C=C/c1cccc(Cl)c1,inactive: -3.81%
17,Cc1cc(Br)ccc1OCc1nc(-c2cccnc2)no1,inactive: -3.95%
18,CCOc1ccc(-c2nnc(-c3cccs3)o2)cc1OCC,inactive: 5.92%
19,CCCN1CCC(NCc2cn(C)nc2-c2ccc(Oc3ccccc3)cc2)CC1,inactive: -5.6%
20,Cc1c(C#N)c(NC(=O)CCl)n(Cc2ccccc2)c1C,inactive: -3.06%
21,CCN1CCN(c2ccc(NC(=O)c3ccc([N+](=O)[O-])o3)cc2Cl)CC1,inactive: -0.148%
22,CCOC(=O)N1C(=O)[C@@](CC)(c2ccccc2)N1C(=O)OCC,inactive: 4.08%
23,N#C/C(=C\c1cccs1)C(=O)NCC1CCCO1 (centres undefined),inactive: 11.3%
24,O=[N+]([O-])c1cc(C(F)(F)F)ccc1NCCc1ccccn1,inactive: 5.9%
25,CS(=O)(=O)c1ncc(Cl)c(C(=O)Nc2ccc(N3CCOCC3)cc2)n1,inactive: -15.9%

row,Compound,"activity change, negative = decreased viability"
1,Cc1ccc(C(=O)Nc2cnc3ccccc3c2)cc1,inactive: 0.329%
2,COc1ccc2c(c1OC)C(=O)N(c1ccc(C)cc1)C2,inactive: 8.55%
3,COc1ccc(Nc2oc(-c3ccc(OC)cc3)nc2C#N)cc1,inactive: 5.14%
4,CCSc1nnc(NC(=O)C2CCCCC2)s1,inactive: -2.19%
5,CC1CCN(CC(CS(=O)(=O)c2ccc([N+](=O)[O-])cc2)N2CCC(C)CC2)CC1 (centres undefined),inactive: 5.07%
6,CSc1nc(N)n2nc(-c3ccccc3)cc2n1,inactive: -17%
7,CCNC1=C(Cl)C(=O)c2ccccc2C1=O,inactive: -23.1%
8,Cc1scc(C(=O)N/N=C/c2ccc([N+](=O)[O-])o2)c1C,inactive: -10.2%
9,CC1=NNC(=O)/C1=C\c1cn(-c2ccccc2)nc1-c1ccc(F)cc1,inactive: -11.5%
10,Nc1ccc(-c2nc3ccc(C(=O)O)cc3s2)cc1,inactive: -8.8%
11,CS(=O)(=O)c1nc(-c2ccc(F)cc2)cc(C(F)(F)F)n1,inactive: 38.8%
12,CCOC(=O)C1CCCN(C(=O)C2CCN(S(=O)(=O)CC)CC2)C1 (centres undefined),inactive: 3.54%
13,C=CCOc1ccc(/C=C2\SC(=S)N(CCC(=O)O)C2=O)cc1,inactive: -6.85%
14,Cc1nc(Sc2nnnn2C)c2c3c(sc2n1)CCC3,inactive: 6.44%
15,CN(C)c1ccc(NC(=S)c2ccccn2)cc1,inactive: -38.5%
16,O=C(CC(=O)c1ccccc1)Nc1ccccn1,inactive: 3.43%
17,C=CCC(Nc1ccccc1)C12C=CC(O1)C(C(=O)OC)=C2C(=O)OC (centres undefined),inactive: 9.9%
18,O=C1Nc2ccc(Br)cc2/C1=C/C(=O)c1ccc2c(c1)OCO2,inactive: 20.9%
19,CC(C)(C)c1ccc(/C=N/Nc2ccc(C(=O)O)cc2)cc1,inactive: 6.22%
20,CCN(CC)CCNC(=O)c1ccc(NC(=O)c2cn(-c3ccccc3)nc2-c2cccs2)cc1,inactive: -38.3%
21,O=C(CCCc1ccccc1)N1CCN(C2CCCCC2)CC1,inactive: 1.04%
22,O=C(COC(=O)c1ccc[nH]c1=O)Nc1ccc(N2CCCCC2)cc1,inactive: 5.85%
23,COc1ccc(NC(=O)c2cc(-c3ccccc3Cl)on2)cc1,inactive: 3.51%
24,COCCCn1[nH]c2c3c(ccc2c1=O)C(=O)c1ccccc1C3=O,inactive: -9.87%

# Grouped by structure, those above containing a tert-butyl group
row,Compound,"activity change, negative = decreased viability"
18,CC(C)(C)N=Cc1cc(-c2ccccc2)sc1O,inactive: 10%
19,CC(C)(C)c1ccc(/C=N/Nc2ccc(C(=O)O)cc2)cc1,inactive: 6.22%
